# Measured values as given in PubChem BioAssay AID1508600 (Functional Genomics Laboratory (NCATS/FGL), 2020).
# Hit rate of the full screen: of about 53,000 sequences, about 3,700 (7%) were called active.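 Rule for the calls: active = gene knockdowns whose robust z-score for IL-1 alpha signal is at least 2 or at most -2, so actives lie on both sides; inactive = the rest.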 The list shows a part of the results.
# Experiment: Components of the Cytosolic LPS Sensing Pathway: Gene Identification via Genome-wide siRNA Screen;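 note: robust z of the log signal after scaling to non-targeting control siRNA wells of the plate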
# Conditions: RAW264.7 macrophages, IL-1a HTRF, actives lie on both sides, screened at 100 nM (by protocol), cells primed 5 h with Pam3CSK4 first
# How it was run: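 RAW264.7; siRNA 100 nM final, RNAiMAX, 48h 37 degrees C; Pam3CSK4 5 h; LipidA + TransIT-TKO 24 h; IL-1a HTRF; CellTiter-Glo viability; robust z vs negative-control median.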
row,Sequence,z-score
1,GGCUUUCCCAAGCUAAGAGTT against Maff,inactive: 1.32
2,GGAUACCAAGAUUCCAAAUTT against Pik3r4,active: 2.19
3,GGAUUCUUCGCUCCAAUGATT against Pacs1,inactive: 0.73
4,GCAUGUAUAUAGGUAAAACTT against Nedd1,inactive: 1.27
5,GCCUGUUCAUCGGUUUUAUTT against Vmn1r56,inactive: -0.175
6,ACUGUUUAGACCCGGUUUCTT against Cd59b,inactive: 0.803
7,CCACAUGCCUGAGAGAUUCTT against Spp2,inactive: 1.28
8,GCGAUUCCUAGAGCUGAGCTT against Git1,active: -2.5
9,CGGUAUUGGUCCAGAAGUGTT against Dand5,inactive: 0.993
10,GCGGUAUGUACCUGUGAAATT against Exosc3,inactive: -1.13
11,GGCCGGGCAUUCUAAAGAATT against Zfp516,inactive: 0.363
12,GGAGCUAACAAAAUAGGCUTT against Epb41l4b,inactive: 0.0549
13,GCCUGUAAAAACCUUUUCCTT against Utp15,inactive: -0.154
14,GGAGGAUAUUGGAACUGCCTT against Lrrc26,inactive: 0.312
15,GAUUUCAUUAAACAUGUCCTT against Cox8b,inactive: -0.41
16,CCUACAAUUCUAGGUUACGTT against Snx16,inactive: -1.34
17,GGUGGUCAACCCUCUGUUCTT against Rpl7a,inactive: 1.6
18,GGAAAAUGCAUUUCAGACATT against Ugcg,inactive: -0.201
19,GGCGCAACUUGAAACUUACTT against Galnt4,inactive: 0.696
20,GGAGAGAAACUUCAGAGUGTT against Spon2,inactive: -0.453
21,GGUUUCAUAAAUUCAGUGGTT against Brox,inactive: 1.05
22,GCUGAUACUUGUGUCUUCUTT against Selenop,inactive: -0.927
23,GAUCCCUGGAUUGUGGAGUTT against 2310057N15Rik,inactive: 0.26
24,GGAUGUCGGUGUGAUUUGCTT against Cd163,inactive: -0.314
25,GGAACUGGAGCAACUCAUUTT against Sgsm1,inactive: -1.11
26,GGUAGAUGGGUUUCAUAAUTT against Gpc2,inactive: 0.612
27,GGCUAAAUCUCACACUCCATT against Mzb1,active: -2.18

row,Sequence,z-score
1,CCAGGAUUACUUACACUCGTT against Flot1,inactive: -0.583
2,GCAAGAGUCCACCUUUAGCTT against Gstk1,inactive: 0.0418
3,GGGACACUUGGACUUUAUATT against Psapl1,inactive: -0.733
4,GGAUGUGCUUAUGAACAAUTT against Rab38,inactive: 1.38
5,GGCAGCUGGCUAUUUUCACTT against Prmt9,inactive: 0.114
6,GGAAAAUUCUGAGUUAAAGTT against Tapt1,inactive: -0.415
7,GGAUUCUCAAUAAAGACUUTT against Naxe,inactive: 0.24
8,UUUUCCAGUUAGUGACAACTT against Oxct2b,inactive: 0.681
9,CCAUUCUGAAUCUCUAAUCTT against Pigw,inactive: 0.134
10,GGCCAAAUAGCAUUUGCCATT against Olfr657,inactive: -0.0182
11,GCUGACAGUAGUUUGAAGATT against Defb1,inactive: 0.161
12,GCCCUAUCUGCUGAUACCUTT against Mavs,inactive: 0.473
13,GGAAUUAUAGGACUUGUUCTT against Serinc1,inactive: 0.256
14,GCAUAGAAUACAAAGAUGATT against Cnst,inactive: -0.116
15,GGACAGAGAAAGGCACAGATT against Clcn3,inactive: -0.525
16,GGAUCUAGUCCCUGAUUUGTT against Sdhb,inactive: -0.234
17,GGAAAUCUAAAGGAGACAUTT against Cdo1,inactive: -0.945
18,CGCCACGAACUCAAUUCUGTT against Irx4,inactive: -0.124
19,GGAUGGAACUAUCUGAAUUTT against Slc7a5,inactive: -0.396
20,CCCAUUGUCAUGAUAAGCUTT against Fbln1,inactive: 0.376
21,GGCGGUUAAACCACAGCGUTT against Snapin,inactive: -0.749
22,GGCAUUAUACCCAUCAGGCTT against Fam89b,inactive: 0.238
23,GGCAAGCUACAAGUUAGUCTT against Srrm3,inactive: 0.469
24,GGGUGAUAAAAUUCAGAUUTT against Gpr88,active: 2.07
25,GGAGAAGUAUGAAAUAGCATT against Rad51,inactive: -0.37
26,CCCUGAGGCAAAGAAAUGUTT against Msh3,inactive: 0.0401
27,GGCCCAAUUGUCGAUAUCCTT against 2300002M23Rik,inactive: 1.82

# For reference, some entries already given:
row,Sequence,z-score
19,GGCGCAACUUGAAACUUACTT against Galnt4,inactive: 0.696
20,GGAGAGAAACUUCAGAGUGTT against Spon2,inactive: -0.453
21,GGUUUCAUAAAUUCAGUGGTT against Brox,inactive: 1.05
